# Results from PubChem BioAssay AID587 (National Center for Advancing Translational Sciences (NCATS), 2007).
# Out of some 59,000 compounds screened, about 35 (0.06%) were called active. The inconclusive results got no clear call from the source; some entries with a clear call stand among them for comparison. No stated cut-off is given here; in the data, active means max dye-equivalent concentration above about 10 nM; inconclusive means between about 1.1 nM and that limit; inactive means weaker than that.
# Assay: qHTS Assay for Spectroscopic Profiling in Texas Red Spectral Region
# Details: Compound fluorescence, Texas Red channel, 547/618 nm; stronger effect = higher value
# How it was run: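 Dye-equivalent concentrations come from scaling compound signal (ex 547, em 618 nm) to six Texas Red standard concentrations run on every plate, after 15 min room-temperature incubation in pH 8.0 Tris (100 mM).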
row,SMILES,max dye-equivalent concentration
1,CC(C)C[C@H](NC(=O)[C@@H](NC(=O)N[C@@H](Cc1ccccc1)C(=O)O)[C@H]1CCN=C(N)N1)C(=O)N[C@H](C=O)Cc1ccccc1,inactive
2,CC(=O)[C@H]1CC[C@H]2[C@@H]3C=CC4=CC(=O)CC[C@@]4(C)[C@H]3CC[C@]12C,inconclusive: 1.3 nM
3,CCCC(=O)NCCCc1nc2ccccc2n1CCC,inconclusive: 1.2 nM
4,Cc1cc(=O)cc(C)n1-c1ccccc1N1CCOCC1,inconclusive: 1.1 nM
5,CCOCCCNCc1ccc(OC)c(OC)c1,inconclusive: 1.1 nM
6,Cc1ccc2[nH]c3c(=O)n(CCCN4CCOCC4)cnc3c2c1,inconclusive: 1.1 nM
7,CCN1C(=O)N(C)C2(c3ccccc3)N(C)C(=O)N(C)C12c1ccccc1 (stereo unspecified),inconclusive: 2.6 nM
8,COc1ccc(Cl)cc1-n1c(=S)sc2c(=O)[nH]c(SCC(=O)NCC3CCCO3)nc21 (stereo unspecified),inconclusive: 1.2 nM
9,CC(C)OC(=O)CSc1nc2cccnc2n1C1CCCCC1,inconclusive: 2.2 nM
10,COc1ccccc1OCC(=O)Nc1nnc(-c2ccco2)s1,inconclusive: 1.2 nM
11,Cc1cc2n(n1)C(c1ccc(O)cc1)Nc1ccccc1-2 (stereo unspecified),inconclusive: 2.7 nM
12,Cc1ccc(Cl)cc1N1CCN(Cc2nnnn2Cc2ccco2)CC1,inconclusive: 1.3 nM
13,C[N+](C)(C)CCOC(N)=O,inconclusive: 1.6 nM
14,Cc1cc(NC(=O)COc2cccc(Oc3ccccc3)c2)no1,inconclusive: 1.6 nM
15,Cc1cccc(/N=C/c2c(O)c3ccccc3oc2=O)n1,inconclusive: 1.1 nM
16,CCOC(=O)CSc1nnnn1-c1cc(OC)ccc1OC,inconclusive: 1.4 nM
17,Cc1nnc(SCC(=O)N2CCOCC2)c2ccccc12,inconclusive: 1.2 nM
18,CCC(C)NC(=O)C1CCCN(S(=O)(=O)c2ccc(-n3cnnn3)cc2)C1 (stereo unspecified),inconclusive: 2.2 nM
19,O=C(CN1C(=O)CSc2ccccc21)N1CCc2ccccc21,inconclusive: 1.2 nM

row,SMILES,max dye-equivalent concentration
1,Cc1cc2cc(CNC(=O)c3cc4ccccc4o3)ccc2n1C,inconclusive: 4.5 nM
2,CC(=O)Nc1ccc(OC[C@@H](O)CNC(C)C)cc1,inconclusive: 1.2 nM
3,CN(C)CC[C@@H](c1ccccc1)c1ccccn1,inconclusive: 1.3 nM
4,COc1ccc(OC)c(NC(=O)CSc2nc3c(c(=O)n(C)c(=O)n3C)n2C)c1,inconclusive: 1.7 nM
5,CC(=O)N1CC=C2C(C#N)=C(N)C(C#N)(C#N)C(CCc3ccccc3)C2C1 (stereo unspecified),inconclusive: 2.1 nM
6,O=C(CC(NS(=O)(=O)c1ccc(Cl)cc1)c1ccco1)NCc1ccco1 (stereo unspecified),inconclusive: 1.2 nM
7,Cn1cnnc1SCC(=O)OCN1C(=O)c2ccccc2C1=O,inconclusive: 1.5 nM
8,CCN1C(=O)C=CC1=O,inconclusive: 1.3 nM
9,CCOC(=O)c1ccc2[nH]cc(C(C)=O)c(=O)c2c1,inactive
10,C=C(C)COc1ccc(-c2nc(N)ncc2Oc2ccc(OC)cc2)c(O)c1,inconclusive: 1.4 nM
11,CC(=O)OC(C(=O)n1nc(C)cc1C)c1ccccc1 (stereo unspecified),inconclusive: 1.3 nM
12,O=c1c2ccccc2nnn1CSc1nnc(Nc2ccccc2)s1,inconclusive: 2.8 nM
13,CC(C)(C)c1[nH]nc2c1C(Cc1ccccc1)C(C#N)=C(N)O2 (stereo unspecified),inconclusive: 1.3 nM
14,COc1ccccc1NC(=O)C(C)Sc1nnnn1C (stereo unspecified),inconclusive: 1.9 nM
15,Cn1c(COc2ccc3ccccc3c2)nnc1SCC(N)=O,inconclusive: 1.6 nM
16,CCCS(=O)(=O)C(=C1Nc2ccccc2N1)S(=O)(=O)CCC,inactive
17,Cn1c(=O)c2c(nc(CN3CCN(c4ccccc4)CC3)n2Cc2ccccc2Cl)n(C)c1=O,inconclusive: 1.3 nM
18,NC(=O)N/N=C1\CC[C@H](O)C[C@@H]1CC(=O)O,inactive
19,Cc1ccc(S(=O)(=O)N(C)CC(=O)N2CCN(c3ccccn3)CC2)cc1,inconclusive: 1.2 nM

row,SMILES,max dye-equivalent concentration
1,C=CCNc1nc(-c2sc(NC(=O)CC)nc2C)cs1,inconclusive: 1.5 nM
2,Cn1c(=O)cc(SCC(=O)NCc2ccco2)c2ccccc21,inconclusive: 1.2 nM
3,COc1ccc(NC(C)=O)cc1NC(=O)CSc1nnc(-c2ccc(F)cc2)n1N,inconclusive: 1.1 nM
4,CC1CCCC(C)N1C(=O)Cn1c(SCC(=O)NCc2ccc3c(c2)OCO3)nc2ccccc21 (stereo unspecified),inconclusive: 1.9 nM
5,COc1ccc(NC(=O)C(C)NS(=O)(=O)c2ccc(NC(C)=O)cc2)cc1Cl (stereo unspecified),inconclusive: 2.2 nM
6,O=c1c(-c2cc(F)cc(F)c2)nc2cncnc2n1Cc1ccccc1,inactive
7,O=C(O)c1cccc(COc2ccc(CO)cc2Cl)c1,inconclusive: 1.3 nM
8,COc1ncnc2c1oc1nc(C(C)C)c3c(c12)CC(C)(C)OC3,inconclusive: 2.2 nM
9,COc1ccc(NC(=O)c2cccc(-n3cnnn3)c2)cc1,inconclusive: 1.2 nM
10,C=CCc1ccccc1OCCn1ccnc1,inconclusive: 1.9 nM
11,COc1ccccc1-c1nnc(SCC(=O)Nc2nc(-c3ccccc3)cs2)n1C,inconclusive: 2.1 nM
12,Nc1n[nH]c2ccccc12,active: 29 nM
13,C/C(N)=C(/C#N)C(=O)CSc1n[nH]c(-c2ccccc2Br)n1,inconclusive: 1.6 nM
14,N[C@@H](Cc1ccc(O)c(O)c1)C(=O)O,inconclusive: 1.2 nM
15,COC(=O)CCN1CCC(C(N)=O)CC1,inconclusive: 1.1 nM
16,Cc1nc2ccc(NC(=O)Cn3cnc4c3c(=O)n(C)c(=O)n4C)cc2s1,inconclusive: 2.1 nM
17,CCOC(=O)c1cc(C#N)c(SCC(=O)c2cc(C#N)c(SC)nc2C)nc1C,inconclusive: 1.4 nM
18,CN1CCN(c2ccc(Cl)cc2NC(=O)c2nn(-c3ccccc3)c(=O)c3ccccc23)CC1,inconclusive: 1.4 nM

# Of the compounds above, these have fluorine:
row,SMILES,max dye-equivalent concentration
3,COc1ccc(NC(C)=O)cc1NC(=O)CSc1nnc(-c2ccc(F)cc2)n1N,inconclusive: 1.1 nM
6,O=c1c(-c2cc(F)cc(F)c2)nc2cncnc2n1Cc1ccccc1,inactive

# Part of the list above, with bars between the fields.
row | SMILES | max dye-equivalent concentration
19 | Cc1ccc(S(=O)(=O)N(C)CC(=O)N2CCN(c3ccccn3)CC2)cc1 | inconclusive: 1.2 nM
1 | C=CCNc1nc(-c2sc(NC(=O)CC)nc2C)cs1 | inconclusive: 1.5 nM
